These are yes or no findings as the source states them, for the method shown. Some binding calls cover weakened binding; strength is not graded here.
Molecular target: Amyloid β 1-9 polypeptide corresponding to the N-terminal region of βCTF
Assay: polypeptide screening against Amyloid β 1-9

| Binder | binding |
| --- | --- |
| MGRVNCDCYCIGHYCYCYYCHNI (amino terminal acetylated, carboxy terminal amidated) [#8 polypeptide] | binds |
| MPLSICDCYCISTICYCYFCVHR (amino terminal acetylated, carboxy terminal amidated) [#9 polypeptide] | binds |
| MPTVYCDCYCAYNACYCYYCRSD (amino terminal acetylated, carboxy terminal amidated) [#10 polypeptide] | binds |
| MHHVYCDCYCFGPVCYCHSCT (amino terminal acetylated, carboxy terminal amidated) [6-5 polypeptide] | binds |
| MNTLICDCYCSLTRCFCYSCVDS (amino terminal acetylated, carboxy terminal amidated) [9-7 polypeptide] | binds |
| MSIRVCDCYCHGDLCFCYSCINS (amino terminal acetylated, carboxy terminal amidated) [#1 polypeptide] | binds |
| MDTVICDCYCDNYVCFCYSCSHV (amino terminal acetylated, carboxy terminal amidated) [#2 polypeptide] | binds |
| MGLISCDCYCDSTACFCYSCTDF (amino terminal acetylated, carboxy terminal amidated) [#3 polypeptide] | binds |
| MHLVICDCYCTTDICYCYSCTPN (amino terminal acetylated, carboxy terminal amidated) [#4 polypeptide] | binds |
| MVPVVCDCYCFLSVCFCYSCYIT (amino terminal acetylated, carboxy terminal amidated) [#5 polypeptide] | binds |
| MLYTSCDCYCDAFSCFCYSCGPY (amino terminal acetylated, carboxy terminal amidated) [#6 polypeptide] | binds |
| MRIFDCDCYCYRDICYCYFCTRH (amino terminal acetylated, carboxy terminal amidated) [#7 polypeptide] | binds |
